Measurements published in US11692007B2 (priority 2021, dated 2023).

Legend:
[1] = general procedure: Fmoc solid-phase peptide synthesis; Fmoc-Thr(tBu)-ol-Trt-PS; DIC/OxymaPure; details: whole synthesis, HPLC-MS, scale of the general procedure 800 mg resin; run 1
[2] = general procedure: Fmoc solid-phase peptide synthesis; Fmoc-Ile-Trt-PS resin (loading 1.1 mmol/g); DIC/OxymaPure; details: whole synthesis, HPLC-MS, scale of the general procedure 800 mg resin; run 2
[3] = general procedure: Fmoc solid-phase peptide synthesis; Fmoc-Ile-Trt-PS; DIC/OxymaPure; details: whole synthesis, HPLC-MS, scale of the general procedure 800 mg resin

Substance | crude HPLC purity [1] | crude HPLC purity [2] | crude HPLC purity [3] [%]
H-D-Phe-Cys-Phe-D-Trp-Lys-Thr-Cys-Thr-ol | 83.2% and 68.3% and 76.8% | 99.3% and 98.8% and 99.0% | 
H-AKDGYI-OH |  |  | 97.4

Values joined by “and” are separate entries in the source; they are usually repeats but may differ in a detail not shown here. Equal values may be shown once.
